Test results taken from article PMC10618370, “Mur ligase F as a new target for the flavonoids quercitrin, myricetin, and (–)-epicatechin” (Journal of Computer-Aided Molecular Design, 2023).

Assay: Assay interference screen (malachite green-based assay)
Details: 100 µM compound, absorbance at 650 nm

Row | SMILES | Interference with the malachite green assay (in words)
1 | O=c1c(OC2OC(CO)C(O)C(O)C2O)c(-c2ccc(O)c(O)c2)oc2cc(O)cc(O)c12 (stereo not drawn) [Compound 9] | increased the absorbance at 650 nm
2 | O=c1c(O)c(-c2ccc(O)c(O)c2)oc2cc(O)cc(O)c12 [Compound 14, Quercetin] | interacted with the assay
3 | COc1cc(OC)c2c(=O)cc(-c3ccc(OC)c(OC)c3)oc2c1 [Compound 19] | increased the absorbance at 650 nm

Some entries repeat one wording, which the source may state once for all of them.
